Measurements: paper PMC6053351

System: TZAP zinc finger protein
Assay: fluorescence polarization
Conditions: positive control; FPA with dsDNA: 25 mM Tris pH 7.4, 50 nM FAM-DNA, 200 ul; recombinant protein; label: 5'-FAM on sense strand

Binding result, binds:
GCGGCCCGCGCCCGCCGCCCCGCCGCGGCCCGCGCGGCCCGCGC (double strand) [GC-rich]
ATAATTTATATTTATTATTTTATTATAATTTATATAATTTATAT (double strand) [AT-rich]
GATCTTTAGTTAACTTCCTCTCTGTCTGCAGGCCACTCCAGATC (double strand) [T1]

Construct, isoform or probe ends are uncertain for at least one entry. At least one verdict was read from the data and is not stated in words by the source.
